# According to PubChem BioAssay AID2685 (National Center for Advancing Translational Sciences (NCATS), 2010):
# The other results are listed elsewhere or left out. Shown are side measurements of this screen, not its main read-out; they come without a call. The list favours compounds with an active or inconclusive main result. Words in brackets tell the shape of the fitted curve; partial curves, single points and poor fits give uncertain potencies.
# Assay: qHTS Assay for Lipid Storage Modulators in Drosophila S3 Cells;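 as to cell number change: cells counted by Cell Tracker Red CMTPX staining in the red channel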
# Settings: BODIPY lipid droplet fluorescence, 18-24 h; for cell number change: measured here: cell count max response, cells fed with added oleic acid
# Method in brief: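 Drosophila S3 cells got compounds at several concentrations plus oleic acid (400 uM solution). Laser-scanning cytometry with 488 nm excitation read lipid droplets at 500-530 nm and cells at 575-640 nm. Percent activity was relative to 20 uM Triacsin C.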
# [1] = measured here: lipid fluorescence (Fed channel) AC50, cells fed with added oleic acid
# [2] = measured here: cell number channel AC50, cells fed with added oleic acid
SMILES,cell number change [%],AC50 [1],AC50 [2]
CCCCCN(C(=O)NC(=O)NCCCC)S(C)(=O)=O,14.4,"6.51 µM [falling, single point]",
c1csc(-c2cnc3ccccc3n2)c1,0.917,,
O=C(CSc1ncccn1)N1CCN(C(=O)CSc2ncccn2)CC1,-27.8,"18.4 µM [falling, single point]",
COC(=O)c1ccc(C(=O)Nc2nc3cc(N)c(C)cc3s2)cc1,-8.11,"29.1 µM [falling, single point]",
Cc1nc2ccc(N3C(=O)CCC3=O)cc2[nH]1,,,"0.58 µM [rising, single point]"
N#CC1=C(S)N=C(N)C(c2nc(-c3ccccc3)cs2)C12CCCC2 (stereo not drawn),11.6,"6.51 µM [falling, single point]",
CC(C)C(C(=O)NCC1CCCO1)N(Cc1ccco1)C(=O)CNS(=O)(=O)c1ccccc1 (stereo not drawn),55.7,,"18.4 µM [rising, single point]"
COc1ccc(NC(=O)CSCC(=O)N2CCN(C(=O)c3ccco3)CC2)cc1,23.5,"3.66 µM [rising, full curve, poor fit]",
C=CCn1c(-c2ccc(OC)cc2)nc2nc3ccccc3nc21,20.1,"0.92 µM [rising, partial curve]","0.206 µM [rising, full curve, poor fit]"
O=C(Cn1cc2c(n1)CCCC2)NCC1CCCO1 (stereo not drawn),-79.4,"0.411 µM [falling, full curve, poor fit]","1.46 µM [falling, full curve]"
CC1(C)NC(=O)N(CC(=O)OCC(=O)Nc2cc(S(=O)(=O)N3CCCCC3)ccc2Cl)C1=O,-31.9,"0.092 µM [rising, full curve]","18.4 µM [falling, single point]"
Cc1ccc(NC(=O)CSc2nnc(C)n2CC2CCCO2)cc1 (stereo not drawn),126,,"0.58 µM [rising, single point]"
COc1ccccc1C(=O)N/C(=C\c1ccc(Br)cc1)C(=O)NCCO,,"0.58 µM [rising, single point]",
Cc1cc(C(=O)CN2C(=O)CN(C)C2=O)c(C)n1-c1cccc(S(=O)(=O)N2CCOCC2)c1,71.3,,"18.4 µM [rising, single point]"
Cc1cccc(N2CCN(C(c3ccc(N(C)C)cc3)c3nnnn3C(C)(C)C)CC2)c1C (stereo not drawn),33.4,"3.66 µM [rising, partial curve]","29.1 µM [rising, single point]"
COc1ccc(C(=O)CSc2nnc(CNC(=O)c3ccccc3)o2)cc1,9.76,"23.1 µM [falling, single point]",
CCOc1ccc(/C=N/NC(=O)c2ccc(Cn3cc([N+](=O)[O-])cn3)o2)cc1,,"3.26 µM [rising, full curve]","0.116 µM [rising, full curve, poor fit]"
COc1ccc(N2CCN(C(CNC(=O)C(=O)NCCCn3ccnc3)c3ccco3)CC2)cc1 (stereo not drawn),26.1,"29.1 µM [rising, single point]",
O=C(NC1CCN(C(=O)Nc2ccccc2Cl)CC1)c1cccc(F)c1,-9.52,"18.4 µM [falling, single point]",
COc1ccc(NC(=O)CCCCCn2nnc3ccccc3c2=O)cc1,40.4,,"1.84 µM [rising, partial curve]"
Cc1ccccc1-n1nnnc1SCC(=O)NNC(=O)c1ccc(NC(=O)CC#N)cc1,8.67,"1.03 µM [rising, full curve]",

# Copied from the results shown, 13 compounds:
SMILES,cell number change [%],AC50 [1],AC50 [2]
CC(C)C(C(=O)NCC1CCCO1)N(Cc1ccco1)C(=O)CNS(=O)(=O)c1ccccc1 (stereo not drawn),55.7,,"18.4 µM [rising, single point]"
COc1ccc(NC(=O)CSCC(=O)N2CCN(C(=O)c3ccco3)CC2)cc1,23.5,"3.66 µM [rising, full curve, poor fit]",
C=CCn1c(-c2ccc(OC)cc2)nc2nc3ccccc3nc21,20.1,"0.92 µM [rising, partial curve]","0.206 µM [rising, full curve, poor fit]"
O=C(Cn1cc2c(n1)CCCC2)NCC1CCCO1 (stereo not drawn),-79.4,"0.411 µM [falling, full curve, poor fit]","1.46 µM [falling, full curve]"
CC1(C)NC(=O)N(CC(=O)OCC(=O)Nc2cc(S(=O)(=O)N3CCCCC3)ccc2Cl)C1=O,-31.9,"0.092 µM [rising, full curve]","18.4 µM [falling, single point]"
Cc1ccc(NC(=O)CSc2nnc(C)n2CC2CCCO2)cc1 (stereo not drawn),126,,"0.58 µM [rising, single point]"
COc1ccccc1C(=O)N/C(=C\c1ccc(Br)cc1)C(=O)NCCO,,"0.58 µM [rising, single point]",
Cc1cc(C(=O)CN2C(=O)CN(C)C2=O)c(C)n1-c1cccc(S(=O)(=O)N2CCOCC2)c1,71.3,,"18.4 µM [rising, single point]"
Cc1cccc(N2CCN(C(c3ccc(N(C)C)cc3)c3nnnn3C(C)(C)C)CC2)c1C (stereo not drawn),33.4,"3.66 µM [rising, partial curve]","29.1 µM [rising, single point]"
COc1ccc(C(=O)CSc2nnc(CNC(=O)c3ccccc3)o2)cc1,9.76,"23.1 µM [falling, single point]",
CCOc1ccc(/C=N/NC(=O)c2ccc(Cn3cc([N+](=O)[O-])cn3)o2)cc1,,"3.26 µM [rising, full curve]","0.116 µM [rising, full curve, poor fit]"
COc1ccc(N2CCN(C(CNC(=O)C(=O)NCCCn3ccnc3)c3ccco3)CC2)cc1 (stereo not drawn),26.1,"29.1 µM [rising, single point]",
O=C(NC1CCN(C(=O)Nc2ccccc2Cl)CC1)c1cccc(F)c1,-9.52,"18.4 µM [falling, single point]",

# Going on with the list:

SMILES,cell number change [%],AC50 [1],AC50 [2]
CC[n+]1c(/C=C/Nc2ccccc2)oc2ccccc21,-17.7,"3.26 µM [falling, partial curve]",
CN(C)c1ccc(CN2CCCCCC2)cc1,-23.2,,
COc1cc(NC(=O)c2cccc(NC3=NC4CS(=O)(=O)CC4S3)c2)cc(OC)c1OC (stereo not drawn),29.7,,
Cc1cccc(NC(=O)NCc2ccc3c(c2)cc(C)n3C)c1,-16.7,"29.1 µM [falling, single point]",
Oc1ccc(C[C@H]2CNCCN2CCc2cccc(F)c2)cc1,-16.8,"18.4 µM [rising, single point]",
CC(/C=C\c1ccccc1)=C/C(=O)O,,"32.6 µM [rising, single point]",
CCc1cccc(C)c1NC(=S)NCCc1c(C)[nH]c2ccc(C)cc12,-15.3,,
Cc1ccc(S(=O)(=O)CCC(=O)Nc2ccccc2C)cc1,-6.31,"29.1 µM [falling, single point]",
CC(=O)N1c2ccc(S(=O)(=O)N(C)CC(=O)NCc3ccc(C)cc3)cc2CC1C (stereo not drawn),38.9,"25.9 µM [rising, single point]","6.51 µM [rising, partial curve, poor fit]"
COc1ccc(CC(=O)Nc2c3c(nn2-c2cccc(C)c2C)CS(=O)C3)cc1OC (stereo not drawn),11.7,"0.0103 µM [falling, full curve, poor fit]",
CCc1cccc(NC(=O)CN(c2ccc(OC)cc2)S(=O)(=O)c2c(C)n[nH]c2C)c1,-2.12,"20.6 µM [rising, single point]",
Cc1cccc(CCNC(=O)C2CCN(S(=O)(=O)c3c(C)noc3C)CC2)c1,,,"2.31 µM [rising, single point]"
OCCNCc1cccc2ccccc12,118,,
CN(C(=O)COC(=O)c1n[nH]c(=O)c2ccccc12)c1ccccc1,-10.9,"0.164 µM [falling, full curve, poor fit]","0.146 µM [falling, full curve, poor fit]"
CC(C)c1ccccc1NC(=O)c1ccco1,-0.195,,
CCCN1CCN(CCCNC(=O)c2ccc3nc(N4CCCCC4)sc3c2)CC1,23.7,"6.51 µM [rising, single point]","0.0058 µM [rising, full curve, poor fit]"
FC(F)(F)c1cccc(-c2nn[nH]n2)c1,29.4,,"0.82 µM [rising, full curve, poor fit]"
COc1ccc(C(=O)OCC(=O)NC(=O)NCc2ccccc2)cc1[N+](=O)[O-],-7.29,"6.51 µM [falling, single point]",
COc1ccc2nc(SC)c(C#N)cc2c1,-25,"29.1 µM [falling, single point]",
Cc1cccc(Cc2cnc(NC(=O)c3ccc(C)o3)s2)c1,93.5,"20.6 µM [rising, partial curve]","23.1 µM [rising, single point]"
COCCn1c(SCC(=O)NCCc2ccccc2)nnc1-c1ccco1,1.28,"0.103 µM [rising, full curve, poor fit]",

SMILES,cell number change [%],AC50 [1],AC50 [2]
COc1ccc(CCNC(=O)CN2c3cccc4cccc(c34)S2(=O)=O)cc1OC,1.8,,
Nc1c(C(=O)O)cnn1-c1ccccc1,22.5,"29.1 µM [rising, single point]",
COc1ccc(-c2nnc(SCC(=O)NCc3ccco3)o2)cc1,20.2,"1.64 µM [rising, partial curve, poor fit]",
CCN1C(=O)C(CC(=O)NC2CCCCC2)N(CC)C1=O (stereo not drawn),,"6.51 µM [falling, full curve]",
CCOC(=O)CNc1ccc2c(c1)OCO2,134,"29.1 µM [rising, single point]","29.1 µM [rising, single point]"
Cc1nc(/N=C(\N)Nc2ccccc2)nc2ccccc12,1.63,"11.6 µM [rising, partial curve]",
Cc1cccc(NC(=O)COC(=O)c2ccccc2-c2nc3ccccc3s2)c1C,-10.3,"25.9 µM [falling, partial curve, poor fit]",
CN1CCC(N(C)C(=O)c2sc3cc(F)ccc3c2Cl)CC1,-111,,
COc1cc(/C=N/NC(=O)C(=O)NCC2CCCO2)ccc1O (stereo not drawn),-32.5,,"6.51 µM [falling, partial curve]"
Cn1nnnc1SCC(=O)c1ccco1,,"3.26 µM [falling, partial curve]",
CC(C)OCCCNC(=O)CN1C(=O)c2cccc3cccc1c23,-12.4,,
CC1C(=O)N2CCCc3cc(NC(=O)C(=O)NCCCc4ccccc4)cc1c32 (stereo not drawn),,,"2.31 µM [rising, partial curve]"
COc1cc([N+](=O)[O-])cc(/C=N/NC(=O)C(C)Nc2ccccc2C)c1O (stereo not drawn),-24.6,"8.2 µM [falling, partial curve, poor fit]","4.61 µM [falling, full curve, poor fit]"
COc1ccc(/C=C/C(=O)c2ccccc2O)cc1,20.9,"1.3 µM [rising, partial curve]",
Cc1c(-c2ccccc2)nc2ccccc2c1C(=O)Nc1ccncc1,88.2,,"18.4 µM [rising, single point]"
C[N+]12CCCCC1[C@@H](CO)CCC2 (stereo partly drawn),-33.8,"0.259 µM [falling, full curve]","32.6 µM [falling, single point]"
COc1ccc(CNc2nc3ccccc3s2)cc1OC,6.8,,"7.31 µM [rising, partial curve, poor fit]"
CC(C)(C)c1nnc(NC(=O)Cc2ccc(Br)cc2)s1,-11.6,"6.51 µM [rising, full curve]",
Cc1ccc(F)cc1CNC(=O)c1cc(COc2ccc3ncccc3c2)on1,-57.7,"18.4 µM [falling, partial curve, poor fit]","29.1 µM [falling, single point]"
